Results are given in words; binding and its absence hold for the method and conditions named. Some binding calls cover weakened binding; strength is not graded here.
Molecular target: B1 protein (Homo sapiens (Human)) (UniProt O43353)
Assay: yeast two-hybrid, LacZ; binder is the DNA-binding hybrid, target the activation hybrid

Protein sequences, listed by entry. Tags and fused reporters are not part of them. Lines headed by an entry give the natural chain unless they say otherwise; changes in a name come on top.
UniProt O43353: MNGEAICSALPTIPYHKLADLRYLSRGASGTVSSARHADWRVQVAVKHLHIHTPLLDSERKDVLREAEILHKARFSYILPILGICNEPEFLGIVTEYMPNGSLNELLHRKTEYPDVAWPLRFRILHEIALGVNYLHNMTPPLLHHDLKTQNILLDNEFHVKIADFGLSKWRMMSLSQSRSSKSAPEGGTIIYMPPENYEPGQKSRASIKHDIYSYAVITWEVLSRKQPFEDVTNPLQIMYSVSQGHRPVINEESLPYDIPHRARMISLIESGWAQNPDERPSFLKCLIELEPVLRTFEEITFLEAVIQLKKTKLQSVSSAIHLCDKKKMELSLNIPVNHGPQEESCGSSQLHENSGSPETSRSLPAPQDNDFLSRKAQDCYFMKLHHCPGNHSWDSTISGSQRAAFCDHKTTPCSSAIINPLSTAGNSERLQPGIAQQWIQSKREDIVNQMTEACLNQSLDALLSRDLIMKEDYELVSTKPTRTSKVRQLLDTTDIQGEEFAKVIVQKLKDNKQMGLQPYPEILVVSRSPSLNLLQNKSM

B1: TRAF1 (protein, UniProt Q13077 1-416, looked up)
chain: MASSSGSSPRPAPDENEFPFGCPPTVCQDPKEPRALCCAGCLSENPRNGEDQICPKCRGEDLQSISPGSRLRTQEKAHPEVAEAGIGCPFAGVGCSFKGSPQSVQEHEVTSQTSHLNLLLGFMKQWKARLGCGLESGPMALEQNLSDLQLQAAVEVAGDLEVDCYRAPCSESQEELALQHFMKEKLLAELEGKLRVFENIVAVLNKEVEASHLALATSIHQSQLDRERILSLEQRVVELQQTLAQKDQALGKLEQSLRLMEEASFDGTFLWKITNVTRRCHESACGRTVSLFSPAFYTAKYGYKLCLRLYLNGDGTGKRTHLSLFIVIMRGEYDALLPWPFRNKVTFMLLDQNNREHAIDAFRPDLSSASFQRPQSETNVASGCPLFFPLSKLQSPKHAYVKDDTMFLKCIVETST
For B1, the binding was “binds”.

Reference: patent US20050288225A1
